# Measurements reported in PubChem BioAssay AID1259308 (NCATS, 2017)
# Purpose: 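Genes whose loss raises luciferase production in HEK293 cells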 (primary screen)
# Cells: human HEK293 embryonic kidney cells stably expressing firefly luciferase (HEK-CMV-Luc2-Hygro)
# Reagent: single siRNA against human genes, 0.8 pmol siRNA per well
# Timing: 72 h
# Read-out: 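Luciferase light (ONE-Glo) measured on one replicate plate set and viability (CellTiter-Glo) on the other, scaled to a negative control siRNA, with robust z-scores and luciferase per cell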
# Direction: total luciferase, z-score and total luciferase, % of control: higher = more reporter protein produced; luciferase per cell, z-score: higher = more reporter output per viable cell; viable cells, % of control: higher = more viable cells
# Call rule: 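Active when the median/MAD z-score for overall luciferase is greater than 3; a gene was taken forward for validation with new siRNAs if at least two of its three siRNAs passed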
# Meaning of the calls: active = raised luciferase; inactive = no rise
# The deposit covers about 59,000 reagents; this is a random part of them. About 1,510 of them (2.6%) count as active. 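Calls use total luciferase alone and ignore viability, so some active siRNAs may act by altering cell number.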
gene,PubChem SID,"total luciferase, z-score","total luciferase, % of control","luciferase per cell, z-score","viable cells, % of control",call
RWDD1 (RWD domain containing 1),SID160733505,0.307,88,0.555,85,inactive
RWDD1 (RWD domain containing 1),SID160740742,1.08,103,1.55,76.7,inactive
RWDD1 (RWD domain containing 1),SID160740743,0.0685,83.2,-0.488,106,inactive
NQO2 (N-ribosyldihydronicotinamide:quinone dehydrogenase 2),SID160731297,-1.09,60.2,-0.574,78.2,inactive
NQO2 (N-ribosyldihydronicotinamide:quinone dehydrogenase 2),SID160778111,0.226,86.4,-0.198,102,inactive
NQO2 (N-ribosyldihydronicotinamide:quinone dehydrogenase 2),SID160778112,0.807,97.9,0.521,95.4,inactive
GDAP1 (ganglioside induced differentiation associated protein 1),SID160741631,1.02,102,0.806,92.4,inactive
GDAP1 (ganglioside induced differentiation associated protein 1),SID160741632,0.0647,83.2,-0.0103,93.2,inactive
GDAP1 (ganglioside induced differentiation associated protein 1),SID160741633,1.44,111,0.716,102,inactive
IL17F (interleukin 17F),SID160732327,-1.45,53,-1.27,82.8,inactive
IL17F (interleukin 17F),SID160754726,0.754,96.9,1.88,66,inactive
IL17F (interleukin 17F),SID160754727,0.859,99,0.467,97.8,inactive
CCDC6 (coiled-coil domain containing 6),SID160719571,0.804,97.9,0.818,88.2,inactive
CCDC6 (coiled-coil domain containing 6),SID160719572,0.114,84.2,1.69,60.2,inactive
CCDC6 (coiled-coil domain containing 6),SID160719573,1.14,104,1.53,77.9,inactive
CMC2 (C-X9-C motif containing 2),SID160733650,0.837,98.5,0.611,93.7,inactive
CMC2 (C-X9-C motif containing 2),SID160745352,1.75,117,1.73,82.7,inactive
CMC2 (C-X9-C motif containing 2),SID160745353,-0.879,64.4,-0.716,86.9,inactive
CEBPZ (CCAAT enhancer binding protein zeta),SID160726180,-1.7,48.1,-1.23,74.3,inactive
CEBPZ (CCAAT enhancer binding protein zeta),SID160726184,-1.29,56.2,-1.34,89.3,inactive
CEBPZ (CCAAT enhancer binding protein zeta),SID160726190,-1.62,49.6,-1.59,84.2,inactive
GEM (GTP binding protein overexpressed in skeletal muscle),SID160770411,-0.493,72.1,2.79,38.6,inactive
GEM (GTP binding protein overexpressed in skeletal muscle),SID160770414,-0.731,67.3,-0.205,79.4,inactive
GEM (GTP binding protein overexpressed in skeletal muscle),SID160770421,-0.533,71.3,0.302,73.6,inactive

Limited to “total luciferase, z-score” (3 entries from above):
IL17F (interleukin 17F) [SID160732327] = -1.45
IL17F (interleukin 17F) [SID160754726] = 0.754
IL17F (interleukin 17F) [SID160754727] = 0.859
